From PubChem BioAssay AID504834 (National Center for Advancing Translational Sciences (NCATS), 2011)
The campaign covered roughly 320,000 compounds. About 22,000 (6.9%) were called active. The shares of active, inactive and inconclusive entries below differ from those in the screen. Calls follow the shape of the dose curve; as a rule, active = well fitted inhibition curve with a large enough effect; inconclusive = small, poorly fitted or top-dose-only effect, or another doubt; inactive = no such curve, though single readings can be large or run the other way. A potency beside an inconclusive call is a rough fit, not a confirmed value.

experiment: Primary qHTS for delayed death inhibitors of the malarial parasite plastid, 96 hour incubation; conditions: P. falciparum luciferase reporter growth; series mostly up to 28.7 µM
In short: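 Compounds incubated with erythrocytes infected by luciferase-expressing P. falciparum (2% hematocrit, 0.05% parasitemia final) for 96 hours, 37 C in 5% CO2. Growth inhibition scored as decreased luciferase luminescence.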
% is scaled to controls: 0 for no effect and ±100 for the full control effect; potency is read from the fitted curve at half-maximal effect.

Row | SMILES | activity change, negative = inhibition | Potency
1 | CCCCC(=O)Nc1cccc(NC(=O)c2cccc([N+](=O)[O-])c2)c1 | inactive: 26.5% [at 5.75 µM] | –
2 | CC(Oc1ccc(F)cc1)C(=O)Nc1sc2c(c1C(=O)NCc1cccnc1)CCCC2 (stereo not drawn) | – | active: 6.57 µM
3 | COc1ccc([C@H]2CC(=O)C=C(c3cccc(CO)c3)C2)cc1OC | – | inconclusive: 16.5 µM [inhibitor, partial curve, poor fit]
4 | COC(=O)C1C(C(C)C)N(c2ccccc2)OC1(C)O (stereo not drawn) | – | inconclusive: 18.5 µM [inhibitor, single point]
5 | O=C(NCCc1ccccc1)C1CCN(C(=O)c2ccc([N+](=O)[O-])cc2)CC1 | – | inconclusive: 10.4 µM [inhibitor, single point]
6 | Cc1ccc(-c2nc(N(C)C3CCN(C)CC3)c3ccccc3n2)cc1 | – | active: 6.57 µM
7 | CCC(=O)Nc1nc(NCc2ccccc2OC)n(-c2ccccc2)n1 | – | inactive
8 | CCOC(=O)C1=NN(c2ccccc2C)C2=NC(C)=C(C(=O)OC)C(c3cccs3)N12 (stereo not drawn) | – | inconclusive: 18.5 µM [inhibitor, single point]
9 | CCOC(=O)C1=C(C)NC(C)=C(C(=O)OCC)C1c1ccc(C)o1 | – | inconclusive: 18.5 µM [inhibitor, single point]
10 | COc1ccc(C(=O)CSC2=C(C#N)C3(CCCCC3)C(C#N)=C(N)N2)cc1 | – | inactive
11 | O=C(NCC(=O)N1CCN(c2ccccc2O)CC1)C1CCCCC1 | – | inconclusive: 18.5 µM [inhibitor, single point]
12 | COc1cc(Br)c(-c2sc(Nc3ccccc3)n[n+]2-c2ccccc2)cc1OC | – | inconclusive: 18.5 µM [inhibitor, single point]
13 | CN(CC(=O)Nc1ccc(Cl)c(C(F)(F)F)c1)C(=O)CC1Sc2ccccc2NC1=O (stereo not drawn) | – | inconclusive: 18.5 µM [inhibitor, single point]
14 | O=C(NC1CCCCC1)C1CN(S(=O)(=O)c2ccccc2)CCN1S(=O)(=O)c1ccccc1 (stereo not drawn) | – | active: 11.7 µM
15 | CCOc1ccc(S(=O)(=O)N2CCN(C(=O)c3cc([N+](=O)[O-])ccc3N3CCOCC3)CC2)cc1 | – | inconclusive: 10.4 µM [inhibitor, single point]
16 | COc1ccc(S(=O)(=O)Nc2nc3c(s2)C(=O)CC(C)(C)C3)cc1 | – | inconclusive: 9.28 µM [inhibitor, partial curve]
17 | O=C(NCc1cccc(CNC(=O)C(=O)NCC2CCCO2)c1)C(=O)NCC1CCCO1 (stereo not drawn) | – | inconclusive: 13.1 µM [inhibitor, single point]
18 | NC(=O)N/N=C\c1cc(Br)ccc1O | – | inactive
19 | COc1ccc(-c2cc(C(=O)N/N=C/c3ccc(OC)c(COCC(F)(F)C(F)F)c3)c3ccccc3n2)c(OC)c1 | – | active: 6.57 µM
20 | O=C(CN1C(=O)NC2(CCCCC2)C1=O)N1CCN(S(=O)(=O)c2cccc([N+](=O)[O-])c2)CC1 | – | inactive
21 | O=C(Nc1cccc(Cl)c1)C1C2CCC3C(CCC21)C3(Cl)Cl (stereo not drawn) | – | inconclusive: 11.7 µM [inhibitor, partial curve, poor fit]
22 | CNC(=O)c1c(N)sc2c1CCCCC2 | – | active: 10.4 µM
23 | NC(=O)c1nn2c(C(F)(F)F)cc(-c3ccccc3)nc2c1Br | – | inconclusive: 11.7 µM [inhibitor, partial curve, poor fit]

Row | SMILES | activity change, negative = inhibition | Potency
24 | Cc1ccc(/C=C/C(=O)N2CCN(S(=O)(=O)/C=C/c3ccccc3)CC2)o1 | – | active: 5.86 µM
25 | CCCOc1ccc(C(=O)CCC(=O)NNC(=O)c2cccs2)cc1 | – | inactive
26 | O=C(NCC(c1ccco1)N1CCN(c2ccc(F)cc2)CC1)C1CCCCC1 (stereo not drawn) | – | inconclusive: 11.7 µM [inhibitor, single point]
27 | Cc1c(CN2CCCC(C(=O)c3cccc(OC(C)C)c3)C2)c(=O)n(-c2ccccc2)n1C (stereo not drawn) | – | inactive
28 | Oc1cccc(CCC2CCCCN2Cc2cn[nH]c2-c2ccc3c(c2)OCO3)c1 (stereo not drawn) | – | inconclusive: 1.85 µM [inhibitor, partial curve, poor fit]
29 | Cc1ncsc1C(=O)N1N=C2/C(=C/c3ccc(N4CCOCC4)cc3)CCCC2C1c1ccc(N2CCOCC2)cc1 (stereo not drawn) | – | active: 5.22 µM
30 | Cc1ccc(CCN2C(=O)c3ccccc3C2C(=O)NCc2cccnc2)cc1 (stereo not drawn) | – | inactive
31 | O=C(COC(=O)/C(=C/c1cccs1)c1cccs1)NC(c1ccccc1)c1ccccc1 | – | inconclusive: 0.0828 µM [inhibitor, full curve, poor fit]
32 | Cc1ccc(SCCNC(=O)c2ccc(C)c(S(=O)(=O)Nc3cccc(C)c3)c2)cc1 | – | inconclusive: 9.28 µM [inhibitor, partial curve]
33 | CC1CCC(NC(=O)c2ccc3nc[nH]c3c2)CC1 (stereo not drawn) | – | inactive
34 | COc1ccc(NC2=NC(C)(CO)CS2)cc1 (stereo not drawn) | – | inactive
35 | CCN(CC)CCn1c(SCC(=O)Nc2ccc(F)cc2)nc2c(sc3ccccc32)c1=O | – | inconclusive: 11.7 µM [inhibitor, single point]
36 | O=C(O)CC/C(=N\NC(=O)c1ccccc1)c1cccs1 | – | inactive
37 | O=C(CCNC(=O)c1ccco1)Nc1nc2ccccc2s1 | – | inactive
38 | CC(C)(C)OC(=O)N1CCC(NC(=O)c2[nH]cnc2C(=O)N[C@@H](Cc2ccccc2)C(=O)OCc2ccccc2)CC1 | – | active: 1.47 µM
39 | CN(CC(=O)Nc1cccc(F)c1)C(=O)c1ccccc1OCC(=O)Nc1cccc(C(F)(F)F)c1 | – | inconclusive: 16.5 µM [inhibitor, single point]
40 | COC(=O)c1ccc(C2/C(=C(/O)c3ccc4c(c3)CC(C)O4)C(=O)C(=O)N2Cc2cccnc2)cc1 (stereo not drawn) | – | inconclusive: 14.7 µM [inhibitor, single point]
41 | CC(C)(Cc1cccc(CC(C)(C)C(=O)O)c1)C(=O)O | – | inconclusive: 18.5 µM [inhibitor, single point]
42 | CCOC(=O)N1CCN(S(=O)(=O)N2CCCC(C(=O)NCCc3ccc(OC)c(OC)c3)C2)CC1 (stereo not drawn) | – | inconclusive: 18.5 µM [inhibitor, single point]
43 | CC(=O)c1nc(N2C(=O)C3CC=C(C)CC3C2=O)sc1C (stereo not drawn) | – | inconclusive: 11.7 µM [inhibitor, partial curve, poor fit]
44 | CN(CC(=O)Nc1ccc(F)cc1)CC(=O)N1CCc2ccccc21 | – | inactive
45 | COc1ccc(-c2n[nH]c(=S)n2/N=C/C=C/c2ccccc2OC)cc1 | – | inactive
46 | CC12CCC(=O)N1C(C(=O)Nc1nc3ccc(Cl)cc3s1)CS2 (stereo not drawn) | – | inconclusive: 18.5 µM [inhibitor, single point]

In the list so far, these have an NH in an aromatic ring:
Row | SMILES | activity change, negative = inhibition | Potency
28 | Oc1cccc(CCC2CCCCN2Cc2cn[nH]c2-c2ccc3c(c2)OCO3)c1 (stereo not drawn) | – | inconclusive: 1.85 µM [inhibitor, partial curve, poor fit]
33 | CC1CCC(NC(=O)c2ccc3nc[nH]c3c2)CC1 (stereo not drawn) | – | inactive
38 | CC(C)(C)OC(=O)N1CCC(NC(=O)c2[nH]cnc2C(=O)N[C@@H](Cc2ccccc2)C(=O)OCc2ccccc2)CC1 | – | active: 1.47 µM
45 | COc1ccc(-c2n[nH]c(=S)n2/N=C/C=C/c2ccccc2OC)cc1 | – | inactive

(further entries)

Row | SMILES | activity change, negative = inhibition | Potency
47 | CCOC(=O)c1[nH]c2ccc(OC)cc2c1NC(=O)CCN1CCSCC1 | – | inconclusive: 10.4 µM [inhibitor, single point]
48 | Cc1noc(C)c1CSCC(=O)N(C)CC(=O)Nc1ccc(Cl)c(C(F)(F)F)c1 | – | inconclusive: 4.15 µM [inhibitor, partial curve, poor fit]
49 | CCCCN1CC(O)=C(c2nc3ccccc3[nH]2)C1=N | – | inactive
50 | Cc1ccc(-c2cn(-c3ccc(SC(F)F)cc3)c3[n+]2CCC3)cc1 | – | inconclusive: 0.147 µM [inhibitor, full curve, poor fit]
51 | Cc1cccn2c(=O)c3cc(C(=O)NCC4CCCO4)c(=N)n(C4CCCC4)c3nc12 (stereo not drawn) | – | inactive
52 | CN1CCC(=C(c2ccc(Cl)cc2)c2ccccn2)CC1 | – | inactive
53 | COc1cccc(/C=N/Nc2ccnc(=O)[nH]2)c1O | – | active: 0.233 µM
54 | Cc1ccc(S(=O)(=O)Nc2ccccc2C(N)=O)cc1 | – | inconclusive: 1.85 µM [inhibitor, full curve]
55 | COCCNc1nc2c(c(=O)n(Cc3cccc(Br)c3)c(=O)n2C)n1C | – | inconclusive: 0.117 µM [inhibitor, full curve, poor fit]
56 | COc1ccc(NC(=O)c2cc3c(=O)n(C)c4ccccc4c3n2C)cc1OC | – | inconclusive: 2.33 µM [inhibitor, single point]
57 | O=C(Cc1ccc(Cl)cc1)N1CCC2(CC1)NCCc1[nH]cnc12 | – | inactive
58 | COc1c(C)cc(NC(=O)c2ccc3c(c2)NC(=O)CO3)cc1C | – | inconclusive: 14.7 µM [inhibitor, partial curve, poor fit]
59 | O=C(CCN1C(=O)c2cccc3cccc(c23)C1=O)Nc1ccccc1 | – | inconclusive: 0.0033 µM [inhibitor, full curve, poor fit]
60 | Cc1cc(/C=N/Nc2nc(N)ncc2[N+](=O)[O-])c(C)n1-c1cccc(C(F)(F)F)c1 | – | inactive
61 | O=C(COC(=O)Cc1cccc(C(F)(F)F)c1)Nc1ccc2[nH]c(=O)[nH]c2c1 | – | inactive
62 | C=C1C(=O)O[C@H]2[C@H]1[C@H](OC(=O)CC(=O)O[C@@H]1C[C@@H](C)[C@@H]3C=CC(=O)[C@@]3(C)[C@H]3OC(=O)C(=C)[C@H]13)C[C@@H](C)[C@H]1C=CC(=O)[C@]12C | – | inconclusive: 16.5 µM [inhibitor, single point]
63 | CN(CCC1CCOCC1)C(=O)C1CCC(=O)N(CCc2ccc(Cl)cc2)C1 (stereo not drawn) | – | inactive
64 | Cc1cc2cc(CNC(=O)c3ccc(S(=O)(=O)N4CCCC4)cc3)ccc2n1C | – | active: 9.28 µM
65 | CN(C)CCCNc1ncnc2scc(-c3ccccc3)c12 | – | inconclusive: 14.7 µM [inhibitor, partial curve, poor fit]
66 | CCN1CCc2c(C#N)c(N3CCOCC3)nc(N3CCOCC3)c2C1 | – | inconclusive: 11.7 µM [inhibitor, single point]
67 | O=C(Nc1ncccn1)c1cccc(F)c1 | – | inconclusive: 13.1 µM [inhibitor, single point]
68 | Cc1ccc(C)c(NC(=O)/C(C#N)=C/c2cn(CC(=O)NCc3ccco3)c3ccccc23)c1 | – | active: 14.7 µM
